Results published in ChEMBL document CHEMBL1140325, “Discovery of high-affinity ligands of sigma1 receptor, ERG2, and emopamil binding protein by pharmacophore modeling and virtual screening” (J Med Chem, 2005).

Chains of the proteins cited; added tags and fusions are not shown. Lines headed by an entry give the natural chain unless they say otherwise; changes in a name come on top.
UniProt P32352: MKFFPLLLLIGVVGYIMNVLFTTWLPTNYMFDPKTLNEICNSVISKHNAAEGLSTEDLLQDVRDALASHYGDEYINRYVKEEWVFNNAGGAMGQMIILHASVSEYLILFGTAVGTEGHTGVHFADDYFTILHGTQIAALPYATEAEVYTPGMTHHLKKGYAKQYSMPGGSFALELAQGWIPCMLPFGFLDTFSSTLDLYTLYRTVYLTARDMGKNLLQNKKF

Molecular target: C-8 sterol isomerase ERG2 (Saccharomyces cerevisiae S288c, UniProt P32352)
Experiment: Affinity for ERG2 of Saccharomyces cerevisiae using [3H]ifenprodil or (+)-[3H]pentazocine radioligand

Ki: 62 nM
SMILES: CCCCc1oc2ccccc2c1C(=O)c1cc(I)c(OCCN(CC)CC)c(I)c1 [AMIODARONE]
